Experimental data taken from patent US6994856 (Genentech, dated 2006).
Results are given in words; binding and its absence hold for the method and conditions named. For some of these results: In cells and extracts the contact can be indirect. Some binding calls cover weakened binding; strength is not graded here. Where a sequence is shown, tags or fusion partners need not be part of it.

Legend:
ErbB4.Fc [1] = molecular target: T1, ErbB4.Fc (UniProt Q15303 26-651, limits assumed); assay: displacement binding assay, Fig. 7
T1 construct: also called soluble form of ErbB4 receptor; immobilized soluble ErbB4 receptor; not shown: Fc part, not described; the protein was captured on the plate by goat anti-human antibody
T1 sequence (looked up): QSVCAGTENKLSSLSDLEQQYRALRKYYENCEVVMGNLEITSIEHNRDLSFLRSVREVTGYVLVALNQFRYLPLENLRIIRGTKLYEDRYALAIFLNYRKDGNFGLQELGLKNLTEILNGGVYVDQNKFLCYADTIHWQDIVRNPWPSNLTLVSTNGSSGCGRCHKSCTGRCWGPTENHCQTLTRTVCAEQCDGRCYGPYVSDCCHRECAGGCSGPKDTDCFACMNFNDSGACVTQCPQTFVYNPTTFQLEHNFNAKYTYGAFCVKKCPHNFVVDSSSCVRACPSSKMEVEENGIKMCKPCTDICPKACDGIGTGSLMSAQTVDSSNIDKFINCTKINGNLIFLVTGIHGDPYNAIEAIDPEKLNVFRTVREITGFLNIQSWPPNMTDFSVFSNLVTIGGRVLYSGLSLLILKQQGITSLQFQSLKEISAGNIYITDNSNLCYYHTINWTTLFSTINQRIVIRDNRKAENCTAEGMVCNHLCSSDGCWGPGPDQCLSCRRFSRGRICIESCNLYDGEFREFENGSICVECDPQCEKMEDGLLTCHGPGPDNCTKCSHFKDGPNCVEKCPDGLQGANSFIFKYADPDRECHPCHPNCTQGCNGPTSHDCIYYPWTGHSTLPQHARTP

[2] = molecular target: human ErbB4 receptor on cells (human) (UniProt Q15303); assay: FACS on K562^erbB4 cells, anti-gD detection
ErbB4.Fc [3] = molecular target: T1, ErbB4.Fc; assay: co-immunoprecipitation in vitro
[4] = molecular target: human ErbB4 receptor on cells (human) (UniProt Q15303); assay: restates the FACS result of the preceding section

Measured: binding

B1: NRG3^EGF.Fc (Fc fusion, not shown: small tags and cut ends; a dimerising Fc or GST)
chain: ERSEHFKPCRDKDLAYCLNDGECFVIETLTGSHKHCRCKEGYQGVRCDQFLPKTDSILSDP
modifications: radio-iodinated (125I, lactoperoxidase method) where used as tracer
binds: ErbB4.Fc [1] | [2] | ErbB4.Fc [3] | [4]
